Consider one compound from patent publication US20020086278A1, “CHROMOGENIC MEDIA CONTAINING BLOOD OR HEMIN” (priority 1999, published 2002).

The data set in a line: Color contrast of chromogen on blood plate.

Regarding `Oc1c[nH]c2ccc(Br)c(Cl)c12` [5-Bromo-4-chloro-3-indoxyl], the “Contrast on Blood Plate” value was “Good”. The Colony entry (colony color of chromogen) is “blue”.
